Reference: PubChem BioAssay AID1053208 (Peter MacCallum Cancer Centre, 2014)

Screen: 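Synthetic lethal interactions between gene loss and doxorubicin in osteosarcoma cells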 (primary screen)
Cell system: mouse osteosarcoma cells, early-passage culture from an engineered mouse model of fibroblastic bone tumour
Reagents: siRNA pool against mouse genes, 40 nM
Timing: about 120 h (48 h before drug, then 72 h with drug)
Treatment: doxorubicin 100 nM for 72 h, roughly 30-40% inhibitory dose
Read-out: 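Viability read as ATP luminescence after 72 h of 100 nM doxorubicin or none, duplicate wells averaged, scaled to non-targeting siRNA, then expressed as robust z-scores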
Direction: viability z-score with doxorubicin: higher = more viable cells under doxorubicin; viability z-score without drug: higher = more viable cells with knock-down alone
Hit rule: 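Called active if knock-down leaves viability unchanged without drug (z within -2 to 2) but lowers it with doxorubicin (z at or under -2)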
The whole screen tested about 17,000 reagents; this is a random part of them. Of all reagents, 788 (4.7%) were called active. 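Calls rest on z-score classes alone; an extra cut-off of viability at most 70% of control was not applied to them.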 Not all columns of the deposit are shown.

Tmem165 (transmembrane protein 165) | combined z-score class = no change with or without drug; viability z-score with doxorubicin = 1.12; viability z-score without drug = 0.51; call = inactive
Tube1 (tubulin, epsilon 1) | combined z-score class = no change with or without drug; viability z-score with doxorubicin = -1.8; viability z-score without drug = -0.67; call = inactive
Epx (eosinophil peroxidase) | combined z-score class = no change with or without drug; viability z-score with doxorubicin = -0.22; viability z-score without drug = 0.67; call = inactive
Cyp2c39 (cytochrome P450, family 2, subfamily c, polypeptide 39) | combined z-score class = no change with or without drug; viability z-score with doxorubicin = 0.9; viability z-score without drug = 1.85; call = inactive
Ppl (periplakin) | combined z-score class = low cell count with doxorubicin only; viability z-score with doxorubicin = -2.02; viability z-score without drug = -1.35; call = active
Klhdc3 (kelch domain containing 3) | combined z-score class = no change with or without drug; viability z-score with doxorubicin = -1.24; viability z-score without drug = -1.01; call = inactive
BC061195 (cDNA sequence BC061195) | combined z-score class = no change with or without drug; viability z-score with doxorubicin = -1.12; viability z-score without drug = 1.85; call = inactive
Calm1 (calmodulin 1) | combined z-score class = low cell count with and without drug; viability z-score with doxorubicin = -2.25; viability z-score without drug = -2.19; call = inactive
Mob1a (MOB kinase activator 1A) | combined z-score class = no change with or without drug; viability z-score with doxorubicin = -0.45; viability z-score without drug = 0.51; call = inactive
9230109A22Rik (RIKEN cDNA 9230109A22 gene) | combined z-score class = no change with or without drug; viability z-score with doxorubicin = 1.12; viability z-score without drug = -0.17; call = inactive
Adhfe1 (alcohol dehydrogenase, iron containing, 1) | combined z-score class = no change with or without drug; viability z-score with doxorubicin = -0.45; viability z-score without drug = -1.18; call = inactive
Zbtb14 (zinc finger and BTB domain containing 14) | combined z-score class = no change with or without drug; viability z-score with doxorubicin = 0.56; viability z-score without drug = 0.84; call = inactive
Adam28 (a disintegrin and metallopeptidase domain 28) | combined z-score class = no change with or without drug; viability z-score with doxorubicin = -0.22; viability z-score without drug = -0.51; call = inactive
Ccdc163 (coiled-coil domain containing 163) | combined z-score class = low cell count without drug only; viability z-score with doxorubicin = -1.57; viability z-score without drug = -2.19; call = inactive
Rwdd2a (RWD domain containing 2A) | combined z-score class = no change with or without drug; viability z-score with doxorubicin = -0.22; viability z-score without drug = -0.84; call = inactive
Pmpca (peptidase (mitochondrial processing) alpha) | combined z-score class = no change with or without drug; viability z-score with doxorubicin = 0.45; viability z-score without drug = -0.34; call = inactive
4930515G01Rik (RIKEN cDNA 4930515G01 gene) | combined z-score class = low cell count with doxorubicin only; viability z-score with doxorubicin = -2.92; viability z-score without drug = 1.85; call = active
Nde1 (nudE neurodevelopment protein 1) | combined z-score class = no change with or without drug; viability z-score with doxorubicin = -0.11; viability z-score without drug = -0.51; call = inactive
Cpsf7 (cleavage and polyadenylation specific factor 7) | combined z-score class = high cell count without drug only; viability z-score with doxorubicin = 1.12; viability z-score without drug = 2.19; call = inactive

Records listed above with an active call, once more:
Ppl (periplakin) | combined z-score class = low cell count with doxorubicin only; viability z-score with doxorubicin = -2.02; viability z-score without drug = -1.35; call = active
4930515G01Rik (RIKEN cDNA 4930515G01 gene) | combined z-score class = low cell count with doxorubicin only; viability z-score with doxorubicin = -2.92; viability z-score without drug = 1.85; call = active

The listing continues.
Pigyl | combined z-score class = no change with or without drug; viability z-score with doxorubicin = -0.9; viability z-score without drug = 0.84; call = inactive
Bcat2 (branched chain aminotransferase 2, mitochondrial) | combined z-score class = no change with or without drug; viability z-score with doxorubicin = 1.12; viability z-score without drug = 0.84; call = inactive
Ppm1j (protein phosphatase 1J) | combined z-score class = no change with or without drug; viability z-score with doxorubicin = 1.69; viability z-score without drug = 0.17; call = inactive
Tspan15 (tetraspanin 15) | combined z-score class = no change with or without drug; viability z-score with doxorubicin = -0.22; viability z-score without drug = -0.84; call = inactive
Vrk2 (vaccinia related kinase 2) | combined z-score class = no change with or without drug; viability z-score with doxorubicin = -0.45; viability z-score without drug = 1.35; call = inactive
Foxn2 (forkhead box N2) | combined z-score class = no change with or without drug; viability z-score with doxorubicin = 0.9; viability z-score without drug = 0.67; call = inactive
Unc5cl (unc-5 family C-terminal like) | combined z-score class = low cell count with doxorubicin only; viability z-score with doxorubicin = -2.02; viability z-score without drug = -1.52; call = active
Grhpr (glyoxylate reductase/hydroxypyruvate reductase) | combined z-score class = no change with or without drug; viability z-score with doxorubicin = -0.67; viability z-score without drug = -1.01; call = inactive
Junb (jun B proto-oncogene, AP-1 transcription factor subunit) | combined z-score class = no change with or without drug; viability z-score with doxorubicin = 0.22; viability z-score without drug = 1.35; call = inactive
Cetn2 (centrin 2) | combined z-score class = no change with or without drug; viability z-score with doxorubicin = -1.57; viability z-score without drug = 0.17; call = inactive
Nsun2 (NOL1/NOP2/Sun domain family member 2) | combined z-score class = no change with or without drug; viability z-score with doxorubicin = 0.22; viability z-score without drug = -0.84; call = inactive
Cpne2 (copine II) | combined z-score class = no change with or without drug; viability z-score with doxorubicin = -0.9; viability z-score without drug = -0.84; call = inactive
Hmg20a (high mobility group 20A) | combined z-score class = no change with or without drug; viability z-score with doxorubicin = 0.79; viability z-score without drug = -0.67; call = inactive
Gtf3c5 (general transcription factor IIIC, polypeptide 5) | combined z-score class = no change with or without drug; viability z-score with doxorubicin = 0.45; viability z-score without drug = 0.84; call = inactive
Or4d2 (olfactory receptor family 4 subfamily D member 2) | combined z-score class = no change with or without drug; viability z-score with doxorubicin = -0.9; viability z-score without drug = -1.85; call = inactive
Zfp825 (zinc finger protein 825) | combined z-score class = no change with or without drug; viability z-score with doxorubicin = 0.11; viability z-score without drug = 0.51; call = inactive
Bcas2 (BCAS2 pre-mRNA processing factor) | combined z-score class = no change with or without drug; viability z-score with doxorubicin = 0.34; viability z-score without drug = -1.35; call = inactive
